Out of some 300,000 compounds screened, about 3,700 (1.2%) were called active. Inconclusive means that the source gave no clear call. Such entries were picked first, then a sample of the others. Calls come from the whole dose curve; tested in HEK293 cells. Where the call is inconclusive, the potency comes from a doubtful curve fit.
Assay: qHTS for Inhibitors of binding or entry into cells for Lassa Virus; note: nearly all actives have a fitted effect of over 50% in size
Details: Lassa virus pseudotype entry inhibition, cell reporter; series mostly up to 37.9 µM
Potency is the fitted concentration of half-maximal effect.

Row | SMILES | Potency
1 | Cc1cccc(N2CCN(C(=O)c3ccc4c(c3)N(Cc3ccccc3F)C(=O)c3ccccc3S4=O)CC2C)c1 (centres undefined) | inconclusive: 8.91 µM [inhibitor, partial curve, poor fit]
2 | COc1cc(NC(=O)CN2c3cccc4cccc(c34)S2(=O)=O)cc(OC)c1OC | inactive
3 | Cc1ccc(CC(=O)N2CCN(c3ccc([N+](=O)[O-])cc3)CC2)cc1 | inactive
4 | CCCCC(=O)NC(c1ccccc1)c1ccc2cccnc2c1O (centres undefined) | inconclusive: 1.26 µM [inhibitor, full curve, poor fit]
5 | COc1ccc2cnn(-c3ccc(OC(F)(F)Cl)cc3)c(=O)c2c1OC | inactive
6 | CCCCC(CC)CNC(=O)CCCc1nnc2n(CCC)c(=O)c3sccc3n12 (centres undefined) | inconclusive: 5.62 µM [inhibitor, single point]
7 | COc1ccc(-c2ccc(CCC(=O)O)n2CC2CCCO2)cc1 (centres undefined) | inconclusive: 4.47 µM [inhibitor, single point]
8 | Cc1ccc(CN2C(=O)N/C(=C\c3ccc(N4CCOCC4)cc3)C2=O)cc1 | active: 0.0461 µM
9 | CCOC(=O)C1=C(O)c2ccccc2C(=O)/C1=C\c1ccc(C)cc1 | inconclusive: 25.1 µM [inhibitor, single point]
10 | Cc1c(O)nc(SCC(=O)Nc2ccc3c4c(cccc24)CC3)n(-c2ccc(F)cc2)c1=O | inconclusive: 15.8 µM [inhibitor, single point]
11 | CCOC(=O)Cn1ncc(-c2ccccc2)c1N | inconclusive: 16.4 µM [activator, partial curve, poor fit]
12 | CC(=O)c1cccc(-n2nnnc2SCC(=O)Nc2cc(C)on2)c1 | inconclusive: 11.2 µM [inhibitor, partial curve]
13 | O=C(c1cc2ccccc2oc1=O)N1CCCCCCC1 | inconclusive: 3.55 µM [activator, single point]
14 | CCCCNC(=O)c1ccc(NS(=O)(=O)c2ccccc2)cc1 | inconclusive: 22.4 µM [inhibitor, single point]
15 | CCN(CC)S(=O)(=O)c1ccc(C(O)=C(C#N)c2nc3ccccc3n2C)cc1 | inconclusive: 35.5 µM [inhibitor, single point]
16 | Cc1nn(-c2ccccc2)c(N2CCCC2)c1/C=N/NC(=S)Nc1ccc(F)cc1 | inconclusive: 6.31 µM [inhibitor, partial curve, poor fit]
17 | O=C(Cn1nnc(-c2ccc(F)cc2)n1)N1CCCCC1 | inactive
18 | O=C(Nc1cccc(-c2cn3ccccc3n2)c1)C1CC1 | inactive
19 | CCCCSc1nnc2n(-c3cccc(C)c3)c(=O)c3c4c(sc3n12)CCCC4 | inactive
20 | Cc1ccccc1C(=O)N(Cc1cccs1)C1CCS(=O)(=O)C1 (centres undefined) | inconclusive: 6.31 µM [inhibitor, single point]
21 | O=C(COc1ccccc1Cl)Nc1nc2c(s1)CCCC2 | inconclusive: 10 µM [inhibitor, partial curve, poor fit]
22 | N#Cc1ccccc1Cn1c(=O)n(C2CCCC2)c(=O)c2ccccc21 | inactive

A few values from above:
Cc1ccc(CN2C(=O)N/C(=C\c3ccc(N4CCOCC4)cc3)C2=O)cc1 – Potency: active: 0.0461 µM
O=C(COc1ccccc1Cl)Nc1nc2c(s1)CCCC2 – Potency: inconclusive: 10 µM [inhibitor, partial curve, poor fit]
O=C(Cn1nnc(-c2ccc(F)cc2)n1)N1CCCCC1 – Potency: inactive

Later entries.

Row | SMILES | Potency
23 | CCN(CC)S(=O)(=O)c1ccc(OC)c(NC(=O)OCc2ccccc2)c1 | inconclusive: 4.47 µM [inhibitor, single point]
24 | Cc1ccc(CC2(OCCN(C)C)CCC(C(C)(C)C)CC2)cc1 (centres undefined) | inconclusive: 10 µM [inhibitor, partial curve, poor fit]
25 | O=C(Nc1ccc2c(c1)OCCO2)c1oc2ccccc2c1NC(=O)C1CC1 | inactive
26 | COc1ccc(C2C(C(=O)Nc3ccccc3)=C(C)N=C3SCC(=O)N32)cc1 (centres undefined) | inconclusive: 29.1 µM [inhibitor, single point]
27 | CC(C)c1ccc(S(=O)(=O)N2CCN(C(=S)NCc3ccco3)CC2)cc1 | inconclusive: 29.1 µM [inhibitor, single point]
28 | Cc1ccc(C(=O)Cn2cnc3ccccc3c2=O)cc1C | inconclusive: 2.51 µM [activator, partial curve, poor fit]
29 | Cc1ccccc1N1CCN(C2CCCN(C(=O)c3ccccn3)C2)CC1 (centres undefined) | inconclusive: 6.31 µM [inhibitor, partial curve, poor fit]
30 | O=C(CSCc1ccccc1Cl)NNC(=S)Nc1ccccc1 | inactive
31 | O=C(CSc1nnc(SCc2ccc(Cl)cc2)s1)N/N=C/c1c[nH]c2ccccc12 | inconclusive: 35.5 µM [inhibitor, single point]
32 | O=[N+]([O-])c1cccc(-c2nnc(-c3ccc4c(c3)OCO4)o2)c1 | inconclusive: 6.51 µM [activator, single point]
33 | CC(C)(C)c1cc(C(=O)NNc2ccc(OC(F)(F)F)cc2)n(Cc2ccccc2)n1 | inconclusive: 28.2 µM [inhibitor, partial curve, poor fit]
34 | O=C(Nc1ccccc1F)c1ccc([N+](=O)[O-])s1 | inconclusive: 1.26 µM [inhibitor, single point]
35 | CCn1cc([N+](=O)[O-])c(C(=O)N2N=C3/C(=C/c4cccs4)CCCC3C2c2cccs2)n1 (centres undefined) | inconclusive: 14.6 µM [inhibitor, partial curve, poor fit]
36 | O=C(c1cc(-c2ccc(Cl)s2)nc2ccccc12)N1CCOCC1 | inconclusive: 14.1 µM [inhibitor, single point]
37 | Cc1ccc(CNC(=O)C2c3ccccc3C(=O)N(C)C2c2c[nH]c3ccccc23)o1 (centres undefined) | inconclusive: 10 µM [inhibitor, partial curve, poor fit]
38 | CCOC(=O)c1sc2nc3c(cc2c1N)COC(C(C)C)C3 (centres undefined) | inconclusive: 6.51 µM [inhibitor, partial curve, poor fit]
39 | CC1(C(=O)N/N=C/c2ccccc2)CC1(Br)Br (centres undefined) | inactive
40 | Cc1c(NC(=O)/C(C#N)=C/c2ccc(-c3ccc(Cl)cc3)o2)c(=O)n(-c2ccccc2)n1C | inconclusive: 10.3 µM [inhibitor, partial curve, poor fit]
41 | S=C(NCc1ccccn1)Nc1ccc(Cl)cc1Cl | inactive
42 | COc1ccc(C(=O)N2CCc3cc(OC)c(OC)cc3C2c2cccc([N+](=O)[O-])c2)cc1OC (centres undefined) | inconclusive: 10 µM [inhibitor, partial curve, poor fit]
43 | O=S(=O)(Nc1cccc(Cl)c1)c1ccc2[nH]c3c(c2c1)CCCCCC3 | inconclusive: 35.5 µM [inhibitor, single point]
44 | Fc1ccc(CO/N=C/C2=C(Cl)c3ccccc3CC2)cc1 | inconclusive: 10 µM [activator, partial curve, poor fit]

Row | SMILES | Potency
45 | Cc1ccc(-c2cc(C(F)F)nc(N3CCC(C)CC3)n2)cc1 | inconclusive: 29.1 µM [inhibitor, single point]
46 | COc1ccc(/C=C/c2nc3ccccc3n2C)cc1 | active: 0.112 µM
47 | Cc1cccc(N2C(=O)c3ccccc3C2=O)n1 | inconclusive: 6.31 µM [activator, single point]
48 | O=c1c2cn[nH]c2nc(SCc2ccc3c(c2)OCCO3)n1-c1ccccc1 | inconclusive: 15.8 µM [inhibitor, single point]
49 | CCc1ccc(C(=O)CCC(=O)Nc2ccc(OC)c(S(=O)(=O)N3CCCCC3)c2)cc1 | inconclusive: 11.2 µM [inhibitor, partial curve, poor fit]
50 | Cc1cc(C)n(CC(=O)Nc2ccc(F)c(F)c2)c(=O)c1C#N | inactive
51 | COc1ccc2cc(C3=CC(=O)CCC3)ccc2c1 | inconclusive: 5.62 µM [inhibitor, full curve, poor fit]
52 | CCOC(=O)N1CCC(NC(=O)c2ccc3c(c2)N(Cc2cccc(C)c2)C(=O)c2ccccc2S3(=O)=O)CC1 | inconclusive: 8.91 µM [inhibitor, partial curve, poor fit]
53 | COc1ccc(-n2nnnc2SCC(=O)NCc2ccco2)cc1OC | inactive
54 | COc1cc(OC)cc(C(=O)Nc2cccc(NC(=O)c3ccccc3)c2)c1 | inconclusive: 15.8 µM [inhibitor, single point]
55 | Cc1ccc(Nc2nnc(SCC(=O)NCc3ccco3)s2)cc1 | inactive
56 | Cc1cccc(OCC(=O)N/N=C\c2cc3c(cc2[N+](=O)[O-])OCO3)c1C | inconclusive: 2.31 µM [inhibitor, full curve]
57 | COc1ccc2cc(C(=O)/C=C/c3cc(OC)c(O)c(OC)c3)ccc2c1 | inconclusive: 6.31 µM [inhibitor, partial curve, poor fit]
58 | COc1ccc(C(CC(=O)Nc2ccc(C)cn2)N2Cc3ccccc3C2=O)cc1OC (centres undefined) | inactive
59 | Cn1c(CNC(=O)c2ccco2)nnc1SCC(=O)c1ccc(Br)cc1 | inconclusive: 3.55 µM [inhibitor, single point]
60 | COC(=O)c1c(C)oc2ccc(N(C(=O)c3ccncc3)S(=O)(=O)c3cc(C)c(C)cc3C)cc12 | inconclusive: 35.5 µM [inhibitor, single point]
61 | COc1ccc(S(=O)(=O)N(CC(=O)N2CCN(c3ccccc3)CC2)c2ccccc2)cc1 | inconclusive: 29.1 µM [inhibitor, single point]
62 | Nc1cccc(-c2nc3cc(S(=O)(=O)c4ccc5oc(-c6cccc(N)c6)nc5c4)ccc3o2)c1 | inconclusive: 10.3 µM [inhibitor, partial curve, poor fit]
63 | c1ccc(-c2noc(-c3cccs3)n2)nc1 | inconclusive: 16.4 µM [inhibitor, single point]
64 | CCOC(=O)c1c(C)[nH]c(C(=O)N2CCN(C(=O)OCC)CC2)c1C | inconclusive: 14.1 µM [inhibitor, partial curve, poor fit]

A run of entries from further up:
Row | SMILES | Potency
58 | COc1ccc(C(CC(=O)Nc2ccc(C)cn2)N2Cc3ccccc3C2=O)cc1OC (centres undefined) | inactive
59 | Cn1c(CNC(=O)c2ccco2)nnc1SCC(=O)c1ccc(Br)cc1 | inconclusive: 3.55 µM [inhibitor, single point]
60 | COC(=O)c1c(C)oc2ccc(N(C(=O)c3ccncc3)S(=O)(=O)c3cc(C)c(C)cc3C)cc12 | inconclusive: 35.5 µM [inhibitor, single point]
